The campaign covered roughly 300,000 compounds. About 5,400 (1.8%) were called active. Inconclusive means that the source gave no clear call. Such entries were picked first, then a sample of the others. Calls come from the whole dose curve; tested in HEK293 cells. Potencies of inconclusive entries are doubtful fits and often do not repeat.
Test: qHTS for inhibitors of binding or entry into cells for Marburg Virus
Details: Marburg virus pseudotyped entry inhibition, cell reporter; series mostly up to 37.8 µM
With `Cc1cccc(OCC(=O)Nc2ccc(N3CCN(C(=O)c4ccco4)CC3)cc2)c1C` the Potency was inconclusive: 0.316 µM [activator, full curve, poor fit].
For `COc1ccc(S(N)(=O)=O)cc1C(=O)NCCCN1CCN(c2ccc(C)cc2)CC1`, the Potency was “inactive”.
With `C/C(=N\NC(=S)NCc1ccccc1)c1ccccc1F` the Potency was inconclusive: 35.5 µM [inhibitor, single point].
With `CCOC(=O)CNC(c1ccccc1)c1cc(Br)ccc1NC(=O)OCC` (configuration not stated) the Potency was “inactive”.
In the case of `CC1=C(C(=O)OC2CCCCCC2)C(c2ccccc2Cl)CC(=O)N1` (configuration not stated), the Potency is reported as inconclusive: 3.55 µM [inhibitor, single point].
In the case of `CC(Sc1nc(N)cc(=O)[nH]1)C(=O)N1CCOCC1` (configuration not stated), the Potency is reported as inconclusive: 5.01 µM [activator, partial curve, poor fit].
With `CCN1c2ccccc2-c2nc3ccccc3n2C1c1ccco1` (configuration not stated) the Potency was “inactive”.
In the case of `O=C(Nc1ccc(Br)cc1)c1ccc(F)c(S(=O)(=O)N2CCN(c3ccccn3)CC2)c1`, the Potency is reported as inconclusive: 8.91 µM [inhibitor, partial curve, poor fit].
For `COc1ccc(N=C2NC(=O)/C(=C\C=C\c3ccco3)S2)cc1`, the Potency was inconclusive: 2.51 µM [inhibitor, single point].
In the case of `Cc1nc(NC(=O)C(Cl)Cl)sc1C(=O)N(C)C`, the Potency is reported as inconclusive: 5.62 µM [inhibitor, single point].
In the case of `COc1ccc(CCNC(=O)CCc2c(C)nc3c(-c4ccc(F)cc4)c(C)nn3c2C)cc1OC`, the Potency is reported as “inactive”.
With `Cc1ccc2ccccc2c1Cn1c(-n2ccnc2)nc2c1c(=O)n(C)c(=O)n2C` the Potency was inconclusive: 1 µM [activator, single point].
For `COc1ccccc1Cn1c(=O)c2ccccc2n2c(Sc3ncnc4sccc34)nnc12`, the Potency was inconclusive: 18.3 µM [inhibitor, partial curve, poor fit].
For `O=C(N/N=C/C1CC=CCC1)c1cc(Br)ccc1O` (configuration not stated), the Potency was inconclusive: 0.158 µM [activator, full curve, poor fit].
In the case of `O=C(NCC1CCCO1)C(Cc1ccccc1)N1C(=O)C2C3C=CC(C4CC34)C2C1=O` (configuration not stated), the Potency is reported as inconclusive: 3.55 µM [inhibitor, single point].
In the case of `CCN(CC(=O)Nc1ccc(NC(C)=O)cc1)C(=O)/C=C/c1cn(-c2ccccc2)nc1-c1ccc(C)cc1`, the Potency is reported as inconclusive: 28.2 µM [inhibitor, partial curve, poor fit].
In the case of `c1cncc(Nc2nc(-c3ccncc3)cs2)c1`, the Potency is reported as inconclusive: 4.61 µM [inhibitor, partial curve].
With `COC(=O)c1c(C)sc(-c2c(-c3ccc(F)cc3)[nH]c3[nH]c(=O)[nH]c(=O)c23)c1O` the Potency was inconclusive: 2.82 µM [activator, single point].
With `Cc1ccc(NC(=O)C2CCN(S(=O)(=O)c3cccs3)CC2)cc1` the Potency was inconclusive: 35.5 µM [inhibitor, partial curve, poor fit].
For `O=C(O)CCC(=O)Nc1ccc(Br)c(Cl)c1`, the Potency was inconclusive: 0.316 µM [inhibitor, partial curve, poor fit].
With `O=C(Oc1ccc(-c2cnc3ccccc3n2)cc1)c1ccc(Br)o1` the Potency was inconclusive: 29.1 µM [inhibitor, single point].
With `CCC(=O)N1CCc2cc(S(=O)(=O)CCC(=O)NCc3ccccc3Cl)ccc21` the Potency was inconclusive: 11.2 µM [inhibitor, single point].
In the case of `COc1cc(/C=C/C(=O)OCC(=O)Nc2cc(C(F)(F)F)ccc2N2CCOCC2)ccc1O`, the Potency is reported as inconclusive: 1.26 µM [activator, single point].
For `CCc1ccc(/C(C)=N/Nc2cc(Cl)nc(C)n2)cc1`, the Potency was “inactive”.
In the case of `O=C(O)CCC(NS(=O)(=O)c1ccc(N2CCCC2=O)cc1)C(=O)O` (configuration not stated), the Potency is reported as “inactive”.
For `CC(C)c1ccc(Nc2ncccc2C(=O)O)cc1`, the Potency was inconclusive: 11.2 µM [inhibitor, partial curve, poor fit].
With `C[C@@H]1CN(C2CCN(C(=O)c3ccccc3Cl)CC2)C[C@H](C)O1` the Potency was “inactive”.
For `CC(NC(=O)c1ccc([N+](=O)[O-])cc1[N+](=O)[O-])c1ccc(-c2ccccc2)cc1` (configuration not stated), the Potency was inconclusive: 0.112 µM [activator, full curve, poor fit].
With `COc1ccc(C(=O)/C=C2/C(=O)Nc3ccccc32)c(OC)c1` the Potency was inconclusive: 35.5 µM [inhibitor, partial curve, poor fit].
In the case of `COc1ccc(CN(CC(=O)NC2CCCC2)C(=O)c2onc(C(N)=O)c2N)cc1`, the Potency is reported as inconclusive: 6.51 µM [activator, partial curve, poor fit].
With `COc1ccccc1N1CCN(C(c2ccccn2)c2nnnn2C2CCCCC2)CC1` (configuration not stated) the Potency was inconclusive: 35.5 µM [inhibitor, single point].
In the case of `CC(=O)Oc1ccc(N(C(C)=O)S(=O)(=O)c2cccs2)c2ccccc12`, the Potency is reported as active: 11.6 µM.
In the case of `O=C(COC(=O)c1cc[n+]([O-])cc1)Nc1ccccc1Cl`, the Potency is reported as “inactive”.
In the case of `CCCCS(=O)(=O)N1CCc2nc(-c3ccccc3)c3c(c2C1)CO[C@@H](C)C3`, the Potency is reported as inconclusive: 2.11 µM [activator, partial curve, poor fit].
In the case of `OCC1(Cc2cccc(Cl)c2)CCCN(Cc2ccc3cc(F)ccc3n2)C1` (configuration not stated), the Potency is reported as inconclusive: 7.08 µM [inhibitor, partial curve, poor fit].
In the case of `CCOC(=O)c1sc(SC)c2c1CCC/C2=N/OC`, the Potency is reported as “inactive”.
With `CCOC(=O)OC[C@H]1O[C@H](C#Cc2ccc(C(C)(C)C)cc2)C=C[C@@H]1OC(=O)OCC` the Potency was inconclusive: 6.68 µM [inhibitor, single point].
With `Cc1cccc(N(C[C@@H](O)CN(C)C)S(=O)(=O)c2ccccc2)c1` the Potency was inconclusive: 7.08 µM [inhibitor, partial curve, poor fit].
In the case of `COc1ccc(/C=C/C(=O)NC(=S)NCCc2ccc(OC)c(OC)c2)cc1`, the Potency is reported as inconclusive: 18.3 µM [inhibitor, single point].
In the case of `Cc1ccc(CNC(=O)c2cc3c(=O)n4cccc(C)c4nc3n(CC3CCCO3)c2=N)cc1` (configuration not stated), the Potency is reported as “inactive”.
With `CCCn1cc(C(=O)OCC)c(=O)c2cc(F)c(F)cc21` the Potency was inconclusive: 5.62 µM [activator, single point].
For `COc1ccccc1N1C(=O)c2ccccc2NC1c1ccncc1` (configuration not stated), the Potency was “inactive”.
In the case of `CC1CCCCN1CC(O)COCc1ccc(Cl)cc1` (configuration not stated), the Potency is reported as “inactive”.
With `Fc1ccccc1CNc1ccc(Cl)cc1` the Potency was inconclusive: 32.6 µM [activator, single point].
For `COC(=O)c1ccc(-c2nc3cc(Cl)c(N)cc3s2)cc1`, the Potency was active: 0.501 µM.
In the case of `CCc1c(C)c(C#N)c2nc3ccccc3n2c1NCc1ccco1`, the Potency is reported as inconclusive: 20 µM [inhibitor, single point].
In the case of `CCOc1ccc(C(=O)Nc2cc(-c3ccccc3)no2)cc1`, the Potency is reported as inconclusive: 2.51 µM [activator, partial curve, poor fit].
In the case of `O=C(COC(=O)c1ccc2c(c1)OCCO2)NCCC1=CCCCC1`, the Potency is reported as “inactive”.
For `Cc1cc(Br)ccc1NC(=O)CN1C(=O)c2cccnc2Sc2ccccc21`, the Potency was “inactive”.
For `O=C(Nc1ccc(CN2CCOCC2)cc1)c1ccc(-c2cccc(Cl)c2)o1`, the Potency was inconclusive: 5.17 µM [inhibitor, partial curve, poor fit].
In the case of `COc1ccc(N(Cc2cccs2)C(=O)COc2ccc([N+](=O)[O-])cc2)cc1`, the Potency is reported as “inactive”.
With `COc1cccc([C@H]2/C(=C(\O)c3ccc(C)cc3)C(=O)C(=O)N2Cc2ccco2)c1` the Potency was “inactive”.
With `CCC1([N+](=O)[O-])COC(c2ccc(OC)cc2)OC1` (configuration not stated) the Potency was inconclusive: 12.6 µM [activator, partial curve, poor fit].
For `COC(=O)c1ccc2c(c1)N(C)S(=O)(=O)c1cnc(SCC(=O)C(C)(C)C)nc1-2`, the Potency was “inactive”.
In the case of `CCCNS(=O)(=O)c1ccc(Oc2ncc(C(F)(F)F)cc2Cl)cc1`, the Potency is reported as inconclusive: 1.16 µM [inhibitor, partial curve, poor fit].
For `CCN(CC)C(=S)SCC(=O)c1ccccc1`, the Potency was inconclusive: 29.1 µM [inhibitor, single point].
In the case of `Cc1ccc2sc(N(CCCN(C)C)C(=O)c3ccc(S(=O)(=O)N(C)Cc4ccccc4)cc3)nc2c1C`, the Potency is reported as inconclusive: 35.5 µM [inhibitor, single point].
In the case of `COc1ccc(OC)c(S(=O)(=O)Nc2ccc(C)c(C)c2)c1`, the Potency is reported as inconclusive: 23.1 µM [inhibitor, single point].
With `Cc1cc(C)n(C(=O)CSc2nc3ccccc3o2)n1` the Potency was “inactive”.
In the case of `O=C(NCc1ccc(Cl)cc1Cl)C1CCN(S(=O)(=O)c2ccc3c(c2)OCCCO3)CC1`, the Potency is reported as inconclusive: 22.4 µM [inhibitor, single point].
For `Cc1ccc2oc3c(c(=O)c2c1)C(c1cccc(O)c1)N(CCCN1CCOCC1)C3=O` (configuration not stated), the Potency was “inactive”.
With `COc1cccc(NC(=O)COC(=O)Cc2ccc(Br)cc2)c1` the Potency was inconclusive: 3.55 µM [activator, partial curve].
With `CCCn1c(=O)n(C)c(=O)c2c(SCc3cc(C(C)=O)ccc3OCC)nc(C3CC3)nc21` the Potency was inconclusive: 29.1 µM [inhibitor, single point].
For `COCCCn1c(SCc2ccc(OC)cc2)nc2cc(OC)c(OC)cc2c1=N`, the Potency was “inactive”.
In the case of `COc1cc(C(F)(F)F)nc2ccc(C#CCOC(=O)Nc3ccccc3)cc12`, the Potency is reported as inconclusive: 35.5 µM [inhibitor, single point].
For `CN(C)S(=O)(=O)c1cc(NC(=O)CN2CCCc3ccccc32)ccc1Cl`, the Potency was inconclusive: 35.5 µM [inhibitor, single point].
With `Cc1ccccc1-n1nnnc1Sc1nnnn1-c1ccccc1` the Potency was inconclusive: 12.6 µM [inhibitor, partial curve, poor fit].

— PubChem BioAssay AID540276 (National Center for Advancing Translational Sciences (NCATS), 2011)
Potency is the fitted concentration of half-maximal effect.
